Assay results from the supplement of paper PMC12819154, “High-throughput peptide-centric local stability assay extends protein–ligand identification to membrane proteins, tissues and bacteria” (Nature Structural & Molecular Biology, 2025).
The other results are listed elsewhere or left out. Most entries show no effect beyond the scatter of the controls.

By UniProt entry, the sequences of proteins in these tests, tags left out. Where a name states a change or a piece, a line headed by the entry shows the natural chain unless it says otherwise.
UniProt Q91Y74: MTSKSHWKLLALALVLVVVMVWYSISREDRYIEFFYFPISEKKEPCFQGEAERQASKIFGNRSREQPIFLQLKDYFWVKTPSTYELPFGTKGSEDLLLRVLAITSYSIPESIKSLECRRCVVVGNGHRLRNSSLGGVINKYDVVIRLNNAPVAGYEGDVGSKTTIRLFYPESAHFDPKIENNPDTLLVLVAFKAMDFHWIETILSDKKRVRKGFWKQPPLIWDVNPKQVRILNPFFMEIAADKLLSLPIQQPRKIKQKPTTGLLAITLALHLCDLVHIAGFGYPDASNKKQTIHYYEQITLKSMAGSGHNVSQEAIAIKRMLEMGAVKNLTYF
UniProt Q91WU2: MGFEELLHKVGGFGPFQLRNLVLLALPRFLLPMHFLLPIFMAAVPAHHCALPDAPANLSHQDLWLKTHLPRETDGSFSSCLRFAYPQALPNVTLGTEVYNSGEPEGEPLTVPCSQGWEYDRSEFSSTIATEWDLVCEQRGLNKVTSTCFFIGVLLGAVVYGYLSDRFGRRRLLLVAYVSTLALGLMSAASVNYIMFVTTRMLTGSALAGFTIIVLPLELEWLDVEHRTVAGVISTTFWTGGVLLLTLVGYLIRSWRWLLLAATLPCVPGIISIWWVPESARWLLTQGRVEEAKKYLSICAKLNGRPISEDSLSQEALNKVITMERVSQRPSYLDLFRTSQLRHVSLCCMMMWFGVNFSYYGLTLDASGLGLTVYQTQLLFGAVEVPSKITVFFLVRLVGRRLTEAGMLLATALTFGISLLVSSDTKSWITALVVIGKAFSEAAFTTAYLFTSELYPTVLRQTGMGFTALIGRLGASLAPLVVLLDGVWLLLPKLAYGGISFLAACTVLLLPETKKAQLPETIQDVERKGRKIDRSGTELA
UniProt Q91YS8: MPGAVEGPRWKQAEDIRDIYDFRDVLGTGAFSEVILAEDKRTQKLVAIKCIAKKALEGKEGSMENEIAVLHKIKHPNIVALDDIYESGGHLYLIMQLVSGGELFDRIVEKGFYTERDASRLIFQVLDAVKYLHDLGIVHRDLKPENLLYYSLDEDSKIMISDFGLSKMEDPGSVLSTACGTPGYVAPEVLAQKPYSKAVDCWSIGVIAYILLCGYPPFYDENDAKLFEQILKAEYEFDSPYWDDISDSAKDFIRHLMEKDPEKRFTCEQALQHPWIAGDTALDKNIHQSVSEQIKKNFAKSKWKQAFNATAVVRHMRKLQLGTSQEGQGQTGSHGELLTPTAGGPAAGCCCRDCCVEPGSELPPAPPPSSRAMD
UniProt Q91UZ5: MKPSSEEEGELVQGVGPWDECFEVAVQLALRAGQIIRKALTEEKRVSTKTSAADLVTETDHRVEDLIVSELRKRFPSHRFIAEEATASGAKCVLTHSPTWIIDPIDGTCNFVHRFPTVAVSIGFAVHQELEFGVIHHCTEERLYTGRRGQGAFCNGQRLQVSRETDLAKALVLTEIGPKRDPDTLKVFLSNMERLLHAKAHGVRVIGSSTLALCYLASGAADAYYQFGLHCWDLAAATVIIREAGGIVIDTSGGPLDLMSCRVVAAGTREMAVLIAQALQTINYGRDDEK
UniProt Q8VI47: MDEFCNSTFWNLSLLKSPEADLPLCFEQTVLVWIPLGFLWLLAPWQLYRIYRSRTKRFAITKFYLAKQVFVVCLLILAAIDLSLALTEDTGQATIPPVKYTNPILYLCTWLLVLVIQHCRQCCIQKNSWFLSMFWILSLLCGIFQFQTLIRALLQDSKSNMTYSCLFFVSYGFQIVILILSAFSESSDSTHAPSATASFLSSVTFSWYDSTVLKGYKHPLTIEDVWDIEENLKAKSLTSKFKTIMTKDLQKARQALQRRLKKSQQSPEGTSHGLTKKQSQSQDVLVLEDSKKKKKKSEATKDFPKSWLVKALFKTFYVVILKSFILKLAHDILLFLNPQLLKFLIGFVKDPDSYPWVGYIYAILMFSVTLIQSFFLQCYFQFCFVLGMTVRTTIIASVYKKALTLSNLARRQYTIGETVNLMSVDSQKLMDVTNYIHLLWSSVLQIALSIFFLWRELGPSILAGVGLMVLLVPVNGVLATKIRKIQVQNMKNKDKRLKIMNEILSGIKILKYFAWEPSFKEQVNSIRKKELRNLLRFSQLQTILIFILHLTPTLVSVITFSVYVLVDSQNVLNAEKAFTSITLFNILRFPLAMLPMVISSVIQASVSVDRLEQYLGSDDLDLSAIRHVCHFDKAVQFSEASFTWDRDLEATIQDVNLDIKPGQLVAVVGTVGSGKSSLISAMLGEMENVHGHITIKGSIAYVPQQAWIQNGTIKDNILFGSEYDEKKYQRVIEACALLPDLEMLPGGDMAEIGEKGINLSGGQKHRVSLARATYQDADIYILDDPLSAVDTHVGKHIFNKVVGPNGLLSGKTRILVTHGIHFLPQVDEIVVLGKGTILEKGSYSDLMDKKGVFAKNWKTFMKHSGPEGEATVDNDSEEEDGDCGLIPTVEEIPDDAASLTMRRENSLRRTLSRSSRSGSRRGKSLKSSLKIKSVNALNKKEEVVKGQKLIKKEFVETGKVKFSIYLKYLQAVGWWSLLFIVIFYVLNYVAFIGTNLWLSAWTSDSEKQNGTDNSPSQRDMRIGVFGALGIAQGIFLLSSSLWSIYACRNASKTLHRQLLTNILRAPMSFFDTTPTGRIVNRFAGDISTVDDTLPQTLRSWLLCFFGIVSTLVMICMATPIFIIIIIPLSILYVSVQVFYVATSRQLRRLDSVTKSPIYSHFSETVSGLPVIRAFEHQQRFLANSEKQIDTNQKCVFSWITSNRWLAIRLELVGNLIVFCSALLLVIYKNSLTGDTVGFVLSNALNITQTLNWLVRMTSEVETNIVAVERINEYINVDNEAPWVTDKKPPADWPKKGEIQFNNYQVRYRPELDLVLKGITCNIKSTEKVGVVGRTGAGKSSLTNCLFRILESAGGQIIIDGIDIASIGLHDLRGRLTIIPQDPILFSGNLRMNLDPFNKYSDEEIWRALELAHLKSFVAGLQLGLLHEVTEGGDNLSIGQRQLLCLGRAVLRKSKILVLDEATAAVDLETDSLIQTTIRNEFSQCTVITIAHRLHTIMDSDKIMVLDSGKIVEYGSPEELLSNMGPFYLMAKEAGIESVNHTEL
UniProt Q91VK4: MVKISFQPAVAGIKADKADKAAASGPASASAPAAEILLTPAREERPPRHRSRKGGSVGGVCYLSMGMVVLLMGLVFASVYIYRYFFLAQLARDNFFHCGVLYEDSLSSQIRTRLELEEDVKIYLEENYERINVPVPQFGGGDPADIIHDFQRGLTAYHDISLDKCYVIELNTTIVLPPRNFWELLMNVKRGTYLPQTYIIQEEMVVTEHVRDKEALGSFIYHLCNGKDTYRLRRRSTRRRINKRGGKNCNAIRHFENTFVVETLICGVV
UniProt Q91WV0: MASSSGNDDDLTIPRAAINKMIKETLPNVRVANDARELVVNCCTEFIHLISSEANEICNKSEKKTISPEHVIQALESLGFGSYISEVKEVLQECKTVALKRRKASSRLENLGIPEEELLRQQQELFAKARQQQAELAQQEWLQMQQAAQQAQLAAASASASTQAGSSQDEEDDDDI
UniProt Q8VHG2: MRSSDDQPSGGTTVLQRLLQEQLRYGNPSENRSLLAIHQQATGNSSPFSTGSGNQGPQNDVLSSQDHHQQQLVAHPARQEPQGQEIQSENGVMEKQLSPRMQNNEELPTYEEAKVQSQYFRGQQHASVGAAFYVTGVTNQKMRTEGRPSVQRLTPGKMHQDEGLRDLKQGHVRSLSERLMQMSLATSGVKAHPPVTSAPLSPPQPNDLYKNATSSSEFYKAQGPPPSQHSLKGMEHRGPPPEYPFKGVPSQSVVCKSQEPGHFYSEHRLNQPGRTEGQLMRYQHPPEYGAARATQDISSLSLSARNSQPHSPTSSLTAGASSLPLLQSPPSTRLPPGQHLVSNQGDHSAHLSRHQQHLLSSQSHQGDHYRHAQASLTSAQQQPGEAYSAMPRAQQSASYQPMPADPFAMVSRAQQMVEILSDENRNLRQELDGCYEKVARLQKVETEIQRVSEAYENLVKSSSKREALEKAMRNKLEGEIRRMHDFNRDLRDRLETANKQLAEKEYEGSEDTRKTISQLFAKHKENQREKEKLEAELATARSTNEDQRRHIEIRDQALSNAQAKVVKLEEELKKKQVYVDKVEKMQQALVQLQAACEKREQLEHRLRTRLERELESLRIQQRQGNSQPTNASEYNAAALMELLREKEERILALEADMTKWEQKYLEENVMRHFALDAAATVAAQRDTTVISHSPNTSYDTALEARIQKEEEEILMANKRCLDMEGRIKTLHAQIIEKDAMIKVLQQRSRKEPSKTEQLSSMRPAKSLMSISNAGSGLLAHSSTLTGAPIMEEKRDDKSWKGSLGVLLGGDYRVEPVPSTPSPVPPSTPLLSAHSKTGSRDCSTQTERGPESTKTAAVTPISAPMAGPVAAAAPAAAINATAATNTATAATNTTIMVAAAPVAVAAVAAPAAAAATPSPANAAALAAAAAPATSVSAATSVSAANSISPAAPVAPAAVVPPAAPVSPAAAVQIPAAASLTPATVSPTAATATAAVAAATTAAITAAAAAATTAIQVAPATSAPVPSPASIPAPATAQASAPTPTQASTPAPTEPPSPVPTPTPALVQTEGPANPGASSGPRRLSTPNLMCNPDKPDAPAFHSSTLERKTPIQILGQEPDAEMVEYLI
UniProt Q91YK2: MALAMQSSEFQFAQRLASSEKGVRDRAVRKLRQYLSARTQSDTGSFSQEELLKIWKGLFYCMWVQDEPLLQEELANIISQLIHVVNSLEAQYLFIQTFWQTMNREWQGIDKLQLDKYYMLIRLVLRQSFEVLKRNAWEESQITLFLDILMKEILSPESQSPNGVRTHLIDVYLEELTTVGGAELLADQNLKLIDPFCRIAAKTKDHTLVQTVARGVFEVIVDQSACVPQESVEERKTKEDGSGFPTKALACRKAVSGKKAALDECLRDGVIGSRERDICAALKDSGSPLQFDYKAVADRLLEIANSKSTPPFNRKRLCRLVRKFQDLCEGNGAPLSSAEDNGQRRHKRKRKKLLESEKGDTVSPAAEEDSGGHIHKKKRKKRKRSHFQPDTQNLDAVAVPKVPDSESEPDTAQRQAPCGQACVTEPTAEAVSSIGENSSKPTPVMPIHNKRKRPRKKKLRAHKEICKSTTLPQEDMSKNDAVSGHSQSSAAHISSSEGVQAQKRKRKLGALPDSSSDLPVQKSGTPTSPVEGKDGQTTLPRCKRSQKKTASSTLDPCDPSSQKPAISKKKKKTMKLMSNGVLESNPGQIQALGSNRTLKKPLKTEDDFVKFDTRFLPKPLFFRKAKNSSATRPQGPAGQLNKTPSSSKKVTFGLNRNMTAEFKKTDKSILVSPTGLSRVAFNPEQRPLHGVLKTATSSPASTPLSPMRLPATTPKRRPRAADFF
UniProt Q8VHR0: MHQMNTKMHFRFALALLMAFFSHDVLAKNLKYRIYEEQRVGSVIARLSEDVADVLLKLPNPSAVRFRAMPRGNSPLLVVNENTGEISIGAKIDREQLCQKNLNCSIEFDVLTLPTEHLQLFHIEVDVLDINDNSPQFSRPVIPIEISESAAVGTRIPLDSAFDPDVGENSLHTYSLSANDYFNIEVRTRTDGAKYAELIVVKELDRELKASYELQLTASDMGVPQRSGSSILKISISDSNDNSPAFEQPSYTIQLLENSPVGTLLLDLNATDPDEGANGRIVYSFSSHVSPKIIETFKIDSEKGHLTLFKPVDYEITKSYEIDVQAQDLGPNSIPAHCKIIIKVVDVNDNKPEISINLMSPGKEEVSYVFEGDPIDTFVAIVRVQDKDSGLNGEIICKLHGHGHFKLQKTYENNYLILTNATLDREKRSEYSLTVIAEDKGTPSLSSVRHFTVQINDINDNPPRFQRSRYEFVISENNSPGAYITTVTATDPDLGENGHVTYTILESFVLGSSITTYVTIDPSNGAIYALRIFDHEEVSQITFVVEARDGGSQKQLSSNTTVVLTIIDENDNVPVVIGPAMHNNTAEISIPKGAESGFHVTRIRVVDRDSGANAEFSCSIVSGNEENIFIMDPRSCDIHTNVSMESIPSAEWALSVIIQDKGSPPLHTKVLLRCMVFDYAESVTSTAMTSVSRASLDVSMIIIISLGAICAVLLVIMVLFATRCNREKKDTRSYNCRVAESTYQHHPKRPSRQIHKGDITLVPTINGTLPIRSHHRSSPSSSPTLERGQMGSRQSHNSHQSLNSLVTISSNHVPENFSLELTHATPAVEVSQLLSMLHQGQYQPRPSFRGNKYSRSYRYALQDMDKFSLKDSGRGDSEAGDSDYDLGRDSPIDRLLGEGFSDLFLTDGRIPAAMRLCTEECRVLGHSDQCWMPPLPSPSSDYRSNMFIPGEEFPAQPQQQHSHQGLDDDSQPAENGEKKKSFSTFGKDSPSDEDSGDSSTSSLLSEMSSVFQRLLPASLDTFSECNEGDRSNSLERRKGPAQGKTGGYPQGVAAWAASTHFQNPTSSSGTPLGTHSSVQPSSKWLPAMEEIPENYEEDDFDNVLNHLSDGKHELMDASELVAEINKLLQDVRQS
UniProt Q91V16: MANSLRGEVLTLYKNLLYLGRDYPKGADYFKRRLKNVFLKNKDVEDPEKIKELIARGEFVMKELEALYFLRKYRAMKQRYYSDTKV

compound: CN[C@@H]1C[C@H]2O[C@@](C)([C@@H]1OC)n1c3ccccc3c3c4c(c5c6ccccc6n2c5c31)C(=O)NC4 [staurosporine]; assay: log2 fold change of tryptic peptide abundance, ligand vs vehicle (limited proteolysis) (log2 ratio); higher = more trypsin-susceptible (destabilized); settings: ligand concentration: 20 uM; sample: mouse liver crude lysate; replicate design: treated separately

| Target | log2 fold change |
| --- | --- |
| UniProt Q91Y74 (peptide sequence: EQPIFLQLK, peptide start residue: 65) | -0.137 |
| UniProt Q91WU0 (peptide sequence: GSDDPDQIR, peptide start residue: 404) | -0.334 |
| UniProt Q91WS0 (peptide sequence: VVHAFDMEDLGDK, peptide start residue: 56) | -0.155 |
| UniProt Q91WU2 (peptide sequence: GFEELLHK, peptide start residue: 2) | 0.389 |
| UniProt Q91V83 (peptide sequence: VHVILNSVAHVQR, peptide start residue: 415) | 1.28 |
| UniProt Q91YS8 (peptide sequence: NIHQSVSEQIKK, peptide start residue: 285) | -1.38 |
| UniProt Q91WR3 (peptide sequence: GYRPENSTAVTGGPR, peptide start residue: 693) | -0.303 |
| UniProt Q91VW5 (peptide sequence: TNELVCTSR, peptide start residue: 1247) | 0.412 |
| UniProt Q91UZ5 (peptide sequence: VFLSNMER, peptide start residue: 187) | 0.163 |
| UniProt Q91XC0 (peptide sequence: LETTAPALSPR, peptide start residue: 121) | -0.243 |
| UniProt Q8VI47 (peptide sequence: GYKHPLTIEDVWDIEENLK, peptide start residue: 215) | -0.61 |
| UniProt Q91WD1 (peptide sequence: RPAPPLTPGRLPSIR, peptide start residue: 30) | 0.729 |
| UniProt Q91VK4 (peptide sequence: IYLEENYER, peptide start residue: 122) | 0.17 |
| UniProt Q91VY9 (peptide sequence: RVELLNAK, peptide start residue: 107) | 0.147 |
| UniProt Q91YQ5 (peptide sequence: TEGSDLCDRVSEMQK, peptide start residue: 540) | -0.32 |
| UniProt Q91WV0 (peptide sequence: EVLQECK, peptide start residue: 89) | -0.141 |
| UniProt Q8VHG2 (peptide sequence: LMQMSLATSGVK, peptide start residue: 179) | 0.622 |
| UniProt Q91Z67 (peptide sequence: VLNELYSVMK, peptide start residue: 156) | 0.259 |

An excerpt of these results, field by field:
UniProt Q91Y74 (peptide sequence: EQPIFLQLK, peptide start residue: 65)
  log2 fold change: -0.137
UniProt Q91Z67 (peptide sequence: VLNELYSVMK, peptide start residue: 156)
  log2 fold change: 0.259

Further results follow.

| Target | log2 fold change |
| --- | --- |
| UniProt Q91WF0 (peptide sequence: KALTDFIQEEFQR, peptide start residue: 234) | -0.259 |
| UniProt Q91YK2 (peptide sequence: AALDECLRDGVIGSR, peptide start residue: 260) | -0.475 |
| UniProt Q91WU4 (peptide sequence: VAGLQPVLLQDRR, peptide start residue: 476) | -0.272 |
| UniProt Q91ZH7 (peptide sequence: TLDDYYTDASPNRR, peptide start residue: 317) | 0.242 |
| UniProt Q91Z53 (peptide sequence: KDLEQGVVGAHGLLCR, peptide start residue: 43) | -0.15 |
| UniProt Q91YD9 (peptide sequence: KAVTDLLGR, peptide start residue: 129) | 0.217 |
| UniProt Q91YT8 (peptide sequence: ILNGLASER, peptide start residue: 755) | -0.139 |
| UniProt Q8VHR0 (peptide sequence: ELDRELK, peptide start residue: 3371) | -0.208 |
| UniProt Q91ZR2 (peptide sequence: HFDWLYAR, peptide start residue: 305) | 0.308 |
| UniProt Q91YL2 (peptide sequence: YFCHCCSVEIVPR, peptide start residue: 11) | -0.155 |
| UniProt Q91ZU6 (peptide sequence: ATDPPSLQSHIPVLDKGR, peptide start residue: 6923) | 0.537 |
| UniProt Q91WQ3 (peptide sequence: VDAQFGGVDQR, peptide start residue: 179) | 0.283 |
| UniProt Q91YD3 (peptide sequence: SQLQDTLIHLIK, peptide start residue: 565) | -0.481 |
| UniProt Q91V16 (peptide sequence: LKNVFLK, peptide start residue: 34) | 0.069 |
| UniProt Q91VJ5 (peptide sequence: AFDKADREEGK, peptide start residue: 162) | -0.66 |
| UniProt Q91YI1 (peptide sequence: ASPHDILETIFVR, peptide start residue: 359) | 0.132 |
| UniProt Q8VIM9 (peptide sequence: TQAEALQR, peptide start residue: 170) | -0.171 |
